Laboratory results: PMC3327649
Results are given in words; binding and its absence hold for the method and conditions named. Binding seen in cells or lysates may run through a third protein. Some binding calls cover weakened binding; strength is not graded here. For part of these data: Sequences can lack the tags named with a protein. Each block holds one molecule with its values, some of them ahead of it.

Sequences of proteins named here, by UniProt entry; tags and fusion partners are left off. A change or cut given only in a name is not applied to a line headed by its entry.
UniProt Q3T0E7: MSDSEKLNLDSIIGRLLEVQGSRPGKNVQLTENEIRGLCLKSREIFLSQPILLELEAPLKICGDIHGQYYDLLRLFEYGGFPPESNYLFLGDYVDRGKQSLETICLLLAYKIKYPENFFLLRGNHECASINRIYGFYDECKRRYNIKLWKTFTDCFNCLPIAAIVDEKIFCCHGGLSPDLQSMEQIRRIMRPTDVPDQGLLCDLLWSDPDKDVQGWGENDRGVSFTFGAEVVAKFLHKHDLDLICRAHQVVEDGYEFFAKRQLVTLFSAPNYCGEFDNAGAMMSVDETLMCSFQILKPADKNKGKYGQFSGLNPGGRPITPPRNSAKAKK
UniProt Q3SWW9: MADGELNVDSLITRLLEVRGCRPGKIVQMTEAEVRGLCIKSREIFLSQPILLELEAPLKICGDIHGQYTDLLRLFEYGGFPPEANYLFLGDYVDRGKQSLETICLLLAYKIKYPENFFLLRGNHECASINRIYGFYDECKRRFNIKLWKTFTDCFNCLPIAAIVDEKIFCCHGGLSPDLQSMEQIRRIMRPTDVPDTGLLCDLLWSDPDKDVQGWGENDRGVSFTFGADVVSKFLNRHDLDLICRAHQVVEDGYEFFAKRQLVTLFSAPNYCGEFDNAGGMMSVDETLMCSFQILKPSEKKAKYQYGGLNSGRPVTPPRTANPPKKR

What was measured:
[1] = target: T1, Ezrin-radixin-moesin (ERM)-binding phosphoprotein 50 (EBP50), endogenous in BPAEC (bovine (endogenous in BPAEC)) (UniProt Q3SZK8); assay: co-IP; endogenous EBP50 immunoprecipitated with anti-EBP50 antibody and protein G Sepharose from lysates of asynchronized, thymidine (early S) or nocodazole (mitotic) treated BPAEC; IP buffer 20 mM Tris HCl pH 7.4, 150 mM NaCl, 2 mM EDTA, 2 mM sodium vanadate, 1% Nonidet P-40, 4°C; Western blot for phosphatase subunits
T1 sequence: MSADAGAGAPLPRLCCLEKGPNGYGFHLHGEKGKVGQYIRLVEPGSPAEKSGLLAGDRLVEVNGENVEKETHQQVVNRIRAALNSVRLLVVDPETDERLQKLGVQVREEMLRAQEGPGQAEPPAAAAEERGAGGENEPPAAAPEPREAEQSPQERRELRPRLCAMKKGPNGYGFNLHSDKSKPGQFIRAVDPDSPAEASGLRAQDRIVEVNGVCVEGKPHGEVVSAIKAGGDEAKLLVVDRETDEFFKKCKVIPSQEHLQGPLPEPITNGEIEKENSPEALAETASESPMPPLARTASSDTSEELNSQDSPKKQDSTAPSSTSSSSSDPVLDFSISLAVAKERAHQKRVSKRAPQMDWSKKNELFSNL

[2] = target: T2, PP2A Bα–V5 (pcDNA3.1 V5-His PP2A Bα) (UniProt P63151); assay: co-IP; lysates of BPAEC transfected with V5-tagged PP2A Bα or B′γ incubated with Anti-V5 Agarose Affinity Gel for 5 h at 4°C; washed with PBS, eluted by boiling in SDS buffer; Western blot for endogenous EBP50 and the V5 tag
T2 sequence: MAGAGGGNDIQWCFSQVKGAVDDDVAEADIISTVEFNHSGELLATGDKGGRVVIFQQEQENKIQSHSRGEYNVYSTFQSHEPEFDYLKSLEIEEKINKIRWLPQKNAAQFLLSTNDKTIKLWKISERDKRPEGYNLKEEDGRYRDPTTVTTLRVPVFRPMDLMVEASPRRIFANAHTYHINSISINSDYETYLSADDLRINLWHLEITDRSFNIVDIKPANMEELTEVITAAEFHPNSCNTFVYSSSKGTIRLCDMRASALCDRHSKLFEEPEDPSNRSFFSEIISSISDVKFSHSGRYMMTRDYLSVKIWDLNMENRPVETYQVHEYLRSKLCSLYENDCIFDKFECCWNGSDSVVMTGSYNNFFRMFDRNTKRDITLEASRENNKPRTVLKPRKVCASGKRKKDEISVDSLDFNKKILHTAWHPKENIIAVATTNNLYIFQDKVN

binding [1]: no binding
Molecule: Protein phosphatase 1 catalytic subunit α isoform (PP1c α), endogenous in BPAEC (from UniProt Q3T0E7 1-330) (enzyme)

binding [1]: no binding
Molecule: Protein phosphatase 1 catalytic subunit δ isoform (PP1c δ), endogenous in BPAEC (from UniProt Q3SWW9 1-327) (enzyme)

binding [2]: binds
B1: Ezrin-radixin-moesin (ERM)-binding phosphoprotein 50 (EBP50), endogenous in BPAEC (protein, UniProt Q3SZK8 1-368)
chain: T1 sequence
